Assay results from article doi:10.1101/2020.03.02.973057.
No constants are given. Whether binding was seen depends on the method and setting. In cells and extracts the contact can be indirect. Here binding means that the protein was enriched with, or labelled near, the bait; the list need not be complete. For part of these data: Sequences can lack the tags named with a protein.

Tests used:
Assay in all cases: affinity purification with mass spectrometry
[1] = target: T1, XAC1-TAP (eXpression ACtivator 1, Tb927.7.2780, with C-terminal tandem affinity purification tag) (Trypanosoma brucei) (UniProt Q57Y88)
T1 sequence: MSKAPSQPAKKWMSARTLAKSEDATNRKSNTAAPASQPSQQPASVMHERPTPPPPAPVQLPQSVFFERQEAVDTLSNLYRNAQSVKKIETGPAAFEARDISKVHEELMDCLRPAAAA

[2] = target: T2, MKT1L-TAP (Trypanosoma brucei) (UniProt Q38C92)
T2 sequence: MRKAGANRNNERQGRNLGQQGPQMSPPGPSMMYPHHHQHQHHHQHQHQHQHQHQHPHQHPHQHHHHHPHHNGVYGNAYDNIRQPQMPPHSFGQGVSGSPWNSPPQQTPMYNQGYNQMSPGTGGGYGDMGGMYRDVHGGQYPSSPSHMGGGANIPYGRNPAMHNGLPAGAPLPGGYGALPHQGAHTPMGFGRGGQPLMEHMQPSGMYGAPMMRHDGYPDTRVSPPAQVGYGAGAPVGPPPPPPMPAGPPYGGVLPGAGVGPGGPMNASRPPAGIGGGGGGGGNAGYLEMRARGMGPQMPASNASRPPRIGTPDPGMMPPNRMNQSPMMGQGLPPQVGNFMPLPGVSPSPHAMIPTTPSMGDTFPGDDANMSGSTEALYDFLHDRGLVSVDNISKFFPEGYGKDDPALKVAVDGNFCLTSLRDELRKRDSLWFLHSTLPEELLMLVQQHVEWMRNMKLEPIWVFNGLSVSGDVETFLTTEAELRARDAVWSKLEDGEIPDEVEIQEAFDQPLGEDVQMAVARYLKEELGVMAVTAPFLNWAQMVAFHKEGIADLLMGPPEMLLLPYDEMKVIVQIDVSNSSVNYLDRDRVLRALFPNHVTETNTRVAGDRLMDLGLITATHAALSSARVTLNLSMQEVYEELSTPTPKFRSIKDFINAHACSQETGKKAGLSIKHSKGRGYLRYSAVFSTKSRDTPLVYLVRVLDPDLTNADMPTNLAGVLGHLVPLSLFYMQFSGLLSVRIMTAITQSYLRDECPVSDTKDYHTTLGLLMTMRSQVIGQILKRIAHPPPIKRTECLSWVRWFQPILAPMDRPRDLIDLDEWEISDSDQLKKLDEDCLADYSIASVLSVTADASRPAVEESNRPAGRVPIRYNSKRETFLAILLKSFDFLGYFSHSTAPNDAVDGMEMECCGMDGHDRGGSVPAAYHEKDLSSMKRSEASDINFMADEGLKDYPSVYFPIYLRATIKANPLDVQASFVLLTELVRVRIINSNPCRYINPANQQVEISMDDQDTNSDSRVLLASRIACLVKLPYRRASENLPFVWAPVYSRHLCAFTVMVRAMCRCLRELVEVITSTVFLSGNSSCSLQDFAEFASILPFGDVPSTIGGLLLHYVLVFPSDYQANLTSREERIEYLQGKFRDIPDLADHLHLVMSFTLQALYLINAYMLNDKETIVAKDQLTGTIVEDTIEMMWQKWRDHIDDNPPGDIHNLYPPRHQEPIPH

[3] = target: T3, V5-MKT1 (Trypanosoma brucei) (UniProt Q587E3)
T3 sequence: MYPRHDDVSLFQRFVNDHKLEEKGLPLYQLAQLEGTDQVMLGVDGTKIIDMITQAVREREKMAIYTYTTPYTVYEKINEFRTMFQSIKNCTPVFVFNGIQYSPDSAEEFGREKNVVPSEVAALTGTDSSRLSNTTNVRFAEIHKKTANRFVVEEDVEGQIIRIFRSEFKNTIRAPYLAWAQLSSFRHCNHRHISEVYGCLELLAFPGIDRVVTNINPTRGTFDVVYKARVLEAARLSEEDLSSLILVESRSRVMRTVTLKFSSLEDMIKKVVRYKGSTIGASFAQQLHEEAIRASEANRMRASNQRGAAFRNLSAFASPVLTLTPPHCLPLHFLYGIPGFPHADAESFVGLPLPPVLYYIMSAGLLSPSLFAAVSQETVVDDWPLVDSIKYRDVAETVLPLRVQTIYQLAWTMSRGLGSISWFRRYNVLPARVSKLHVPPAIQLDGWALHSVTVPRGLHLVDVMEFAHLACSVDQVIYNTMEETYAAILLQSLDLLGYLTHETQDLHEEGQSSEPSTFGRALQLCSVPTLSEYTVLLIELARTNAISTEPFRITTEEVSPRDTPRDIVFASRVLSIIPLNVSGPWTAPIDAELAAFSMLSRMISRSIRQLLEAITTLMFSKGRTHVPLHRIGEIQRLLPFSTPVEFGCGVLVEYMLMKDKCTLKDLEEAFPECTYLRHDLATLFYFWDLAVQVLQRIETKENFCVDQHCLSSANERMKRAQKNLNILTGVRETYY

[4] = target: T4, V5-MKT1L (Trypanosoma brucei) (UniProt Q38C92)
T4 sequence: T2 sequence

B1: ZC3H20 (protein, UniProt Q57XK8 1-405)
chain: MQLVASPLETRRDIMCFEKGVECMVVVDPATRKLRIPLSCVYPTRAHQRTTIPSLCLLFLDGRCRQGTQCHQVHAALNVVAALRSQVDYLPICCALHGDRDYVNALDNRSWMSRVVVHVPDATYGGGYIPLARFSYTTPISRLLDALFHSTPQAEGQDGAQWESRAFGTPPSCLVLEAGDITLCRLHVQDRCRYAEECNYLHICKEVARCDRGLTLGQRPRSWKKPPSSSPSGGCFVVTASGTSMPPPPAAAAACDAPTPVSGGWTCPGSPTGSLFGANRSVTLGDASVTTQPAVVRCCDPSSCTEAHSVVDCGQAHIPFSLSRQVSDIHMRQVSSTFFPSDNLSLDVDPSTSGDCLAEQGCGMTPNIVVVTRNGKGGRERWHYNPYGTNGTDRGIEKGEGRGRN
With B1 the binding [1] was “binds”.

B2: PBP1 (protein, UniProt Q57UZ7 1-550)
chain: MEGSHSSNMERLEYLYLNLVGQVVQVRLVDDMCVEGLFVACTDVDAETDAGIMICCTRNLASAKRSPLSPSCVNFTDDLFIPYQSIVMIEVQNAKIRTETPGRPDTGRADFSATKFDWADDGVSELLESEPHQTGTWNQFEANEKSFGVKTTYKEEFYTTRLDHSKITEEQRAQADRLAREIESSSTRGIAHRMEREECLHDDEGLDEGQLYSDVHRPQEKKPPYVPPSTGGRKLVNEPPPVPAAAAPATAPTTAPAAAPAPAAAPPAAAPAAAAPPPPPAATSMADDGSMRHKRMNEDPHHMQYDANQTAAGFNPAAAPYTPMKPGAAVPVVDFLASLADAISNNDMCYDCEPHWPGMCNLFYDQDDSSYSQQNYEAAAMPPSHSMNMHMYVNSQPNIPNAHRGYQGPLGRVPHNQSMPMHHMQGQGFHHEMHHHQAFHGMGNYSSQHHNPPIQEYAPHKGQQGVVSRPGMRQGKGGGASRVEPQQPVSANTASSPPPVPTVDSAPNEVKPPAKLQRGRGMAAFTKGDMDGDSGATTNATGGPKKRVGK
With B2 the binding [2] was “binds”, the binding [3] was “binds” and the binding [4] was “binds”.

B3: XAC1 (Tb927.7.2780) (protein, UniProt Q57Y88 1-117)
chain: T1 sequence
With B3 the binding [2] was “binds” and the binding [4] was “binds”.

B4: LSM12 (protein, UniProt Q38E83 1-190)
chain: MPVCNNDSQLIGLGVSVTLADDTTVNGTVYTYNSSEGLLVLFQGFSGSNPNVKIIRTPFIKEVTALRDNEEKLPPQLEAKARLPSMQAARDRSLFKHASSQLRNAKDKRNQLLQTDDQKTPIAALDTLIKLERIYPDIHWDKDAGVIRFNQDVVVKGKPDWTSPAVVIAEGAGDISRSLMERVQKTLSKK
In the case of B4, the binding [2] is reported as “binds”, the binding [3] is reported as “binds” and the binding [4] is reported as “binds”.
